Reference: patent US10046046B2 (Victoria Link Limited, priority 2014, dated 2018)

Experiment: general procedure: Fmoc solid-phase peptide synthesis; trityl chloride resin (e.g.); also 2-chlorotrityl chloride, Wang, Sasrin, HMPB; Rink amide, Pal, MBHA or Sieber for C-ter

Row | Substance | step yield (late stage modification step) [%] | final HPLC purity (late stage modification step, HPLC) [% pure by HPLC] | conjugation yield (conjugation step) [%]
1 | 4-((2-(FFRKSIINFEKL)-2-oxoethoxy)imino)pentanoic acid | 62 | 96 | –
2 | (2S,3S,4R)-1-(6-Deoxy-6-(4-((2-(FFRKSIINFEKL)-2-(oxo)ethoxyimino)pentanoyloxy)methoxycarbonylamino)-α-D-galactopyranosyloxy)-2-hexacosanoylamino-3,4-octadecandiol | – | – | 52
